# Numbering of substitutions follows the chain as printed. This is one part of the list. For some of these results: At the low end of the ranking the order means little. For some of these results: Construct or isoform of the protein are uncertain.
# Assays:
# Details in all cases: yeast three-hybrid, YBZ-1, SC-Leu-His + 0.5 mM 3-AT, 4 days
# [1] = molecular target: T1, PUM1 PUF domain R2-VFQ R3-THE R4-TFR N899V + Y900F + C935T + R936H + Q939E + N971T + H972F + Q975R (UniProt Q14671)
# T1 sequence: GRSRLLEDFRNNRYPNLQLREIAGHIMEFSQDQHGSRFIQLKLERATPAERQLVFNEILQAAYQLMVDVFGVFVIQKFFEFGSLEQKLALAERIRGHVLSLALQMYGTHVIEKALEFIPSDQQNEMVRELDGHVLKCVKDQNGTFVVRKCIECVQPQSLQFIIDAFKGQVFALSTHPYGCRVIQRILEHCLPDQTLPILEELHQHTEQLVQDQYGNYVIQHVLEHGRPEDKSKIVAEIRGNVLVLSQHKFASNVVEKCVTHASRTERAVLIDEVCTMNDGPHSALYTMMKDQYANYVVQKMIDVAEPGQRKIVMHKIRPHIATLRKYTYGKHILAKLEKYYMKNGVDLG
# [2] = molecular target: T2, PUM1 PUF domain R3-THE R4-TFR R7-NPG C935T + R936H + Q939E + N971T + H972F + Q975R + S1079N + N1080P + E1083G (Homo sapiens) (UniProt Q14671)
# T2 sequence: T1 sequence with V72N, F73Y, S252N, N253P, E256G
# [3] = molecular target: T3, PUM1 PUF domain R5-PHQ R6-SWD C1007P + R1008H + N1043S + Y1044W + Q1047D (UniProt Q14671)
# T3 sequence: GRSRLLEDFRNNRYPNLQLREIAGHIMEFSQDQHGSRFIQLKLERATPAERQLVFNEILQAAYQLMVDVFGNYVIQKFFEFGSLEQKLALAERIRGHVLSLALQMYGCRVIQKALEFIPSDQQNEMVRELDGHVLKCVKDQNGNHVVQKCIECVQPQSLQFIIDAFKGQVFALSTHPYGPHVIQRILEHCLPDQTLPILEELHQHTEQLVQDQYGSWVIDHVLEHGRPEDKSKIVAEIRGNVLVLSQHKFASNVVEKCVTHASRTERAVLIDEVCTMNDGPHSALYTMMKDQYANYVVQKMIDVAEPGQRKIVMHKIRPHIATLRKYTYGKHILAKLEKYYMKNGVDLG
# [4] = molecular target: T4, PUM1 PUF domain R3-THE R4-TFR R7-NPG C935T + R936H + Q939E + N971T + H972F + Q975R + S1079N + N1080P + E1083G (UniProt Q14671)
# T4 sequence: T1 sequence with V72N, F73Y, S252N, N253P, E256G
# [5] = molecular target: T5, PUM1 PUF domain R6-SWD R7-NPG N1043S + Y1044W + Q1047D + S1079N + N1080P + E1083G (Homo sapiens) (UniProt Q14671)
# T5 sequence: T3 sequence with P180C, H181R, S252N, N253P, E256G
Sequence,binding signal (log2 enrichment (interaction score)) [1],binding signal (log2 enrichment (interaction score)) [2],binding signal (log2 enrichment (interaction score)) [3],binding signal (log2 enrichment (interaction score)) [4],binding signal (log2 enrichment (interaction score)) [5]
GGCUAGAACUAGUGGAUCCCCCGGCGCCCGGCGGCUCGAGCCCGGGUAAGUUCACUACGUCUGCAUGCCGCCGGGCGCCAUGCCUGCAGGUCGACUCUAGAAAACAUG,-5.18,-1.09,–,–,–
GGCUAGAACUAGUGGAUCCCCCGGCGCCCGGCGGCUCGAGCCCGGGUAAGGUGAAAAUGUCUGCAUGCCGCCGGGCGCCAUGCCUGCAGGUCGACUCUAGAAAACAUG,-5.23,-1.77,-7.52,–,–
GGCUAGAACUAGUGGAUCCCCCGGCGCCCGGCGGCUCGAGCCCGGGUAAGUUUUCGCGGUCUGCAUGCCGCCGGGCGCCAUGCCUGCAGGUCGACUCUAGAAAACAUG,-5.45,–,–,-2.3,–
GGCUAGAACUAGUGGAUCCCCCGGCGCCCGGCGGCUCGAGCCCGGGUAAGCCUACCUUGUCUGCAUGCCGCCGGGCGCCAUGCCUGCAGGUCGACUCUAGAAAACAUG,-6.56,< -0.53,–,–,-1.01
GGCUAGAACUAGUGGAUCCCCCGGCGCCCGGCGGCUCGAGCCCGGGUAAGUUGACAAGGUCUGCAUGCCGCCGGGCGCCAUGCCUGCAGGUCGACUCUAGAAAACAUG,-5.34,–,–,-2.46,–
GGCUAGAACUAGUGGAUCCCCCGGCGCCCGGCGGCUCGAGCCCGGGUAAGUUGAAGAUGUCUGCAUGCCGCCGGGCGCCAUGCCUGCAGGUCGACUCUAGAAAACAUG,-5.78,< -0.09,-7.97,–,-1.05
GGCUAGAACUAGUGGAUCCCCCGGCGCCCGGCGGCUCGAGCCCGGGUAAGGUUACCAAGUCUGCAUGCCGCCGGGCGCCAUGCCUGCAGGUCGACUCUAGAAAACAUG,-4.33,–,–,-2.95,–
GGCUAGAACUAGUGGAUCCCCCGGCGCCCGGCGGCUCGAGCCCGGGUAAGUGGACACGGUCUGCAUGCCGCCGGGCGCCAUGCCUGCAGGUCGACUCUAGAAAACAUG,-6.1,< -0.38,–,–,–
GGCUAGAACUAGUGGAUCCCCCGGCGCCCGGCGGCUCGAGCCCGGGUAAGAGGCAAGCGUCUGCAUGCCGCCGGGCGCCAUGCCUGCAGGUCGACUCUAGAAAACAUG,-5.73,–,-8.3,-3.12,–
GGCUAGAACUAGUGGAUCCCCCGGCGCCCGGCGGCUCGAGCCCGGGUAAGUGGUUACUGUCUGCAUGCCGCCGGGCGCCAUGCCUGCAGGUCGACUCUAGAAAACAUG,-5.32,–,< -7.16,–,–
GGCUAGAACUAGUGGAUCCCCCGGCGCCCGGCGGCUCGAGCCCGGGUAAGUUGGAACAGUCUGCAUGCCGCCGGGCGCCAUGCCUGCAGGUCGACUCUAGAAAACAUG,-6.71,–,< -7.97,–,–
GGCUAGAACUAGUGGAUCCCCCGGCGCCCGGCGGCUCGAGCCCGGGUAAGUUUGAAUCGUCUGCAUGCCGCCGGGCGCCAUGCCUGCAGGUCGACUCUAGAAAACAUG,-6.01,–,-6.56,-3.18,–
GGCUAGAACUAGUGGAUCCCCCGGCGCCCGGCGGCUCGAGCCCGGGUAAGGCUGGGUAGUCUGCAUGCCGCCGGGCGCCAUGCCUGCAGGUCGACUCUAGAAAACAUG,-3.98,–,–,-2.04,–
GGCUAGAACUAGUGGAUCCCCCGGCGCCCGGCGGCUCGAGCCCGGGUAAGUUUAAACGGUCUGCAUGCCGCCGGGCGCCAUGCCUGCAGGUCGACUCUAGAAAACAUG,-5.08,-1.49,-7.68,–,–
GGCUAGAACUAGUGGAUCCCCCGGCGCCCGGCGGCUCGAGCCCGGGUAAGUUGUCAGAGUCUGCAUGCCGCCGGGCGCCAUGCCUGCAGGUCGACUCUAGAAAACAUG,-4.94,-1.78,< -6.55,–,–
GGCUAGAACUAGUGGAUCCCCCGGCGCCCGGCGGCUCGAGCCCGGGUAAGUUGAUGACGUCUGCAUGCCGCCGGGCGCCAUGCCUGCAGGUCGACUCUAGAAAACAUG,-5.37,–,–,-2.44,–
GGCUAGAACUAGUGGAUCCCCCGGCGCCCGGCGGCUCGAGCCCGGGUAAGUUUACACAGUCUGCAUGCCGCCGGGCGCCAUGCCUGCAGGUCGACUCUAGAAAACAUG,-5.53,–,-6.93,-2.03,–

# Laid out differently: entries from further up
Sequence | binding signal (log2 enrichment (interaction score)) [1] | binding signal (log2 enrichment (interaction score)) [2] | binding signal (log2 enrichment (interaction score)) [3] | binding signal (log2 enrichment (interaction score)) [4] | binding signal (log2 enrichment (interaction score)) [5]
GGCUAGAACUAGUGGAUCCCCCGGCGCCCGGCGGCUCGAGCCCGGGUAAGUUGACAAGGUCUGCAUGCCGCCGGGCGCCAUGCCUGCAGGUCGACUCUAGAAAACAUG | -5.34 | – | – | -2.46 | –
GGCUAGAACUAGUGGAUCCCCCGGCGCCCGGCGGCUCGAGCCCGGGUAAGUUGAAGAUGUCUGCAUGCCGCCGGGCGCCAUGCCUGCAGGUCGACUCUAGAAAACAUG | -5.78 | < -0.09 | -7.97 | – | -1.05

# — PMC8384837
